# In US20200237746A1, “HSP90 TARGETED CONJUGATES AND PARTICLE FORMULATIONS THEREOF” (TARVEDA THERAPEUTICS, INC., priority 2017, published 2020):
# Values joined by “and” are separate entries in the source; they are usually repeats but may differ in a detail not shown here. Identical values can stand only once. Further values from the same series stand in other lists.
# Test system: NCI-H69 xenograft model (small cell lung cancer)
# Test: Efficacy in NCI-H69 xenograft model: tumor volumes and tumor growth inhibition
# Type: in vivo, mice
# Description: Efficacies of Compound A alone or formulated in nanoparticles were studied with NCI-H69 xenograft model (small cell lung cancer).
smiles,measurement,setting,value
"CCc1c2c(nc3ccc(OC(=O)N4CCC(CCn5ccc6cc(-n7c(O)nnc7-c7cc(C(C)C)c(O)cc7O)ccc65)CC4)cc13)-c1cc3c(c(=O)n1C2)COC(=O)[C@]3(O)CC [Compound A, (S)-4,11-diethyl-4-hydroxy-3,14-dioxo-3,4,12,14-tetrahydro-1H-pyrano[3′,4′:6,7]indolizino[1,2-b]quinolin-9-yl 4-(2-(5-(3-(2,4-dihydroxy-5-isopropylphenyl)-5-hydroxy-4H-1,2,4-triazol-4-yl)-1H-indol-1-yl)ethyl)piperidine-1-carboxylate]",TV individual animal,"Compound A 25 mg/kg days 1 and 8, Day 1, 25 mg/kg",224 mm3 and 243 mm3 and 283 mm3 and 287 mm3 and 307 mm3 and 322 mm3 and 345 mm3 and 348 mm3 and 183 mm3 and 192 mm3
same,TV individual animal,"Compound A 25 mg/kg days 1 and 8, Day 5, 25 mg/kg",336 mm3 and 393 mm3 and 434 mm3 and 365 mm3 and 471 mm3 and 469 mm3 and 480 mm3 and 481 mm3 and 200 mm3 and 277 mm3
same,TV individual animal,"Compound A 25 mg/kg days 1 and 8, Day 8, 25 mg/kg",339 mm3 and 499 mm3 and 515 mm3 and 414 mm3 and 514 mm3 and 449 mm3 and 500 mm3 and 497 mm3 and 175 mm3 and 336 mm3
same,TV individual animal,"Compound A 25 mg/kg days 1 and 8, Day 11, 25 mg/kg",321 mm3 and 434 mm3 and 450 mm3 (2×) and 279 mm3 and 508 mm3 and 348 mm3 and 547 mm3 and 160 mm3 and 335 mm3
same,TV individual animal,"Compound A 25 mg/kg days 1 and 8, Day 16, 25 mg/kg",235 mm3 and 513 mm3 and 444 mm3 and 155 mm3 and 472 mm3 and ulcer and 423 mm3 and 429 mm3 and 103 mm3 and 335 mm3
same,TV individual animal,"Compound A 25 mg/kg days 1 and 8, Day 19, 25 mg/kg",sick and 613 mm3 and 464 mm3 and 117 mm3 and 489 mm3 and 522 mm3 and 457 mm3 and 95 mm3 and 342 mm3
same,TV individual animal,"Compound A 25 mg/kg days 1 and 8, Day 22, 25 mg/kg",763 mm3 and 654 mm3 and 90 mm3 and 599 mm3 and 728 mm3 and 652 mm3 and 86 mm3 and 511 mm3
same,TV individual animal,"Compound A 25 mg/kg days 1 and 8, Day 26, 25 mg/kg",990 mm3 and 750 mm3 and 80 mm3 and 828 mm3 and 1019 mm3 and 888 mm3 and 77 mm3 and 603 mm3
same,TV individual animal,"Compound A 25 mg/kg days 1 and 8, Day 31, 25 mg/kg",1378 mm3 and 1010 mm3 and 5 mm3 and 1040 mm3 and 1446 mm3 and 1077 mm3 and 60 mm3 and 915 mm3
same,TV individual animal,"Compound A 50 mg/kg days 1 and 8, Day 1, 50 mg/kg",276 mm3 and 290 mm3 and 309 mm3 and 335 mm3 and 340 mm3 and 351 mm3 and 147 mm3 and 208 mm3
same,TV individual animal,"Compound A 50 mg/kg days 1 and 8, Day 5, 50 mg/kg",394 mm3 and 320 mm3 and 381 mm3 and 333 mm3 and 384 mm3 and 513 mm3 and 445 mm3 and 227 mm3 and 311 mm3
same,TV individual animal,"Compound A 50 mg/kg days 1 and 8, Day 8, 50 mg/kg",409 mm3 and 357 mm3 and 256 mm3 and 374 mm3 and 479 mm3 and 474 mm3 and 487 mm3 and 281 mm3 and 326 mm3
same,TV individual animal,"Compound A 50 mg/kg days 1 and 8, Day 11, 50 mg/kg",332 mm3 and 278 mm3 and ulcer and 243 mm3 and 280 mm3 and 266 mm3 and 342 mm3 and 237 mm3 and 230 mm3
same,TV individual animal,"Compound A 50 mg/kg days 1 and 8, Day 16, 50 mg/kg",206 mm3 and 163 mm3 and 161 mm3 and 173 mm3 and ulcer (2×) and 176 mm3 and 150 mm3
same,TV individual animal,"Compound A 50 mg/kg days 1 and 8, Day 19, 50 mg/kg",147 mm3 and 128 mm3 and 104 mm3 and 126 mm3 and 148 mm3 and 60 mm3
same,TV individual animal,"Compound A 50 mg/kg days 1 and 8, Day 22, 50 mg/kg",153 mm3 and 132 mm3 and 141 mm3 and 123 mm3 and 171 mm3 and 68 mm3
same,TV individual animal,"Compound A 50 mg/kg days 1 and 8, Day 26, 50 mg/kg",204 mm3 and 161 mm3 and 178 mm3 and 113 mm3 and 329 mm3 and 59 mm3
same,TV individual animal,"Compound A 50 mg/kg days 1 and 8, Day 31, 50 mg/kg",420 mm3 and 348 mm3 and 313 mm3 and 276 mm3 and 613 mm3 and 6 mm3
